Data reported in the supplement of paper PMC10849652.
The other results are listed elsewhere or left out.

Protein sequences, listed by entry. Tags and fused reporters are not part of them. Lines headed by an entry give the natural chain unless they say otherwise; changes in a name come on top.
UniProt Q9H477: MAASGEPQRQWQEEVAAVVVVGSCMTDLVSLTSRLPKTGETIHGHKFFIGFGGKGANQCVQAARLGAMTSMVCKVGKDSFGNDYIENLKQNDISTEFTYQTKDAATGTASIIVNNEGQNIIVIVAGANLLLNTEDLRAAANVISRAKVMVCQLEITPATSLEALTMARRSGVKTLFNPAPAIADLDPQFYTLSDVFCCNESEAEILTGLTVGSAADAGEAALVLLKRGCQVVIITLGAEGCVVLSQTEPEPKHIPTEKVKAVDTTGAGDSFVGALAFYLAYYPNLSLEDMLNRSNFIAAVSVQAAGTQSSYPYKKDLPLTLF
UniProt Q86X27: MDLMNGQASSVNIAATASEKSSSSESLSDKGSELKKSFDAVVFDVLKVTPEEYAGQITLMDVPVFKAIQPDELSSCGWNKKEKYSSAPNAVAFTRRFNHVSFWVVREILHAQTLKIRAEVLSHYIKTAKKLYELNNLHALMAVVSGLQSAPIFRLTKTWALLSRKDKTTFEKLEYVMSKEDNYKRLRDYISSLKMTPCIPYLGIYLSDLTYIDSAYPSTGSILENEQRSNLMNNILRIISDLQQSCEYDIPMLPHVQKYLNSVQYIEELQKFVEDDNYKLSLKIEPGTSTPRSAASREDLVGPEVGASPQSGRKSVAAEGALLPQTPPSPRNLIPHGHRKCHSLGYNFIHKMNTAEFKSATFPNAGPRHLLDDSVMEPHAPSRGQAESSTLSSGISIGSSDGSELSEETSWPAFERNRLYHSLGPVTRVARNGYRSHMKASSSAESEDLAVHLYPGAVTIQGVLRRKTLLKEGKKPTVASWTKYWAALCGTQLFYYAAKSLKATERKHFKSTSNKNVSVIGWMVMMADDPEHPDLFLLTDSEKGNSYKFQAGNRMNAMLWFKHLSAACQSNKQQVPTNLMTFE
UniProt Q15771: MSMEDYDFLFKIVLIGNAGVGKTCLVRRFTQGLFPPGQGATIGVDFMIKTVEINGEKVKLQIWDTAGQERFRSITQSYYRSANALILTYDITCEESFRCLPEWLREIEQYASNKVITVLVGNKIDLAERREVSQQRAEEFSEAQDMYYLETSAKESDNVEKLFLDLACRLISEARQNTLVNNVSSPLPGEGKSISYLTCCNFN
UniProt Q6VN20, whole entry, looked up: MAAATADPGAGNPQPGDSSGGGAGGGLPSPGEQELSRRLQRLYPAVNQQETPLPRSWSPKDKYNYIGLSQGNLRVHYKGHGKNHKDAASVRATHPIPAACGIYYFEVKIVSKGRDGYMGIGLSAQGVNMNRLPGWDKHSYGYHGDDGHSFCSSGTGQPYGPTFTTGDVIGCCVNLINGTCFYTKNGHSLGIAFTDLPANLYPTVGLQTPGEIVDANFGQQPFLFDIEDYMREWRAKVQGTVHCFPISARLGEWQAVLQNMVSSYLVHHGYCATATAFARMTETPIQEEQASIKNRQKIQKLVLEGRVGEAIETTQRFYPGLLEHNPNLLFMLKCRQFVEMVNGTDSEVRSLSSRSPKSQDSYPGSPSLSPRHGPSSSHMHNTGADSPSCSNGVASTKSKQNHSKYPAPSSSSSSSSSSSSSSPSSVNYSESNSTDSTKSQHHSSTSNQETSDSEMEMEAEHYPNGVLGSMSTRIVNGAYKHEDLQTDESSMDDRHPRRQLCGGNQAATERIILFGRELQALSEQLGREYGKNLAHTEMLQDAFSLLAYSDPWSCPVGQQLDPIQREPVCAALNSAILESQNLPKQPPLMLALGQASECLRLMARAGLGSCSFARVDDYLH
UniProt Q7Z6E9: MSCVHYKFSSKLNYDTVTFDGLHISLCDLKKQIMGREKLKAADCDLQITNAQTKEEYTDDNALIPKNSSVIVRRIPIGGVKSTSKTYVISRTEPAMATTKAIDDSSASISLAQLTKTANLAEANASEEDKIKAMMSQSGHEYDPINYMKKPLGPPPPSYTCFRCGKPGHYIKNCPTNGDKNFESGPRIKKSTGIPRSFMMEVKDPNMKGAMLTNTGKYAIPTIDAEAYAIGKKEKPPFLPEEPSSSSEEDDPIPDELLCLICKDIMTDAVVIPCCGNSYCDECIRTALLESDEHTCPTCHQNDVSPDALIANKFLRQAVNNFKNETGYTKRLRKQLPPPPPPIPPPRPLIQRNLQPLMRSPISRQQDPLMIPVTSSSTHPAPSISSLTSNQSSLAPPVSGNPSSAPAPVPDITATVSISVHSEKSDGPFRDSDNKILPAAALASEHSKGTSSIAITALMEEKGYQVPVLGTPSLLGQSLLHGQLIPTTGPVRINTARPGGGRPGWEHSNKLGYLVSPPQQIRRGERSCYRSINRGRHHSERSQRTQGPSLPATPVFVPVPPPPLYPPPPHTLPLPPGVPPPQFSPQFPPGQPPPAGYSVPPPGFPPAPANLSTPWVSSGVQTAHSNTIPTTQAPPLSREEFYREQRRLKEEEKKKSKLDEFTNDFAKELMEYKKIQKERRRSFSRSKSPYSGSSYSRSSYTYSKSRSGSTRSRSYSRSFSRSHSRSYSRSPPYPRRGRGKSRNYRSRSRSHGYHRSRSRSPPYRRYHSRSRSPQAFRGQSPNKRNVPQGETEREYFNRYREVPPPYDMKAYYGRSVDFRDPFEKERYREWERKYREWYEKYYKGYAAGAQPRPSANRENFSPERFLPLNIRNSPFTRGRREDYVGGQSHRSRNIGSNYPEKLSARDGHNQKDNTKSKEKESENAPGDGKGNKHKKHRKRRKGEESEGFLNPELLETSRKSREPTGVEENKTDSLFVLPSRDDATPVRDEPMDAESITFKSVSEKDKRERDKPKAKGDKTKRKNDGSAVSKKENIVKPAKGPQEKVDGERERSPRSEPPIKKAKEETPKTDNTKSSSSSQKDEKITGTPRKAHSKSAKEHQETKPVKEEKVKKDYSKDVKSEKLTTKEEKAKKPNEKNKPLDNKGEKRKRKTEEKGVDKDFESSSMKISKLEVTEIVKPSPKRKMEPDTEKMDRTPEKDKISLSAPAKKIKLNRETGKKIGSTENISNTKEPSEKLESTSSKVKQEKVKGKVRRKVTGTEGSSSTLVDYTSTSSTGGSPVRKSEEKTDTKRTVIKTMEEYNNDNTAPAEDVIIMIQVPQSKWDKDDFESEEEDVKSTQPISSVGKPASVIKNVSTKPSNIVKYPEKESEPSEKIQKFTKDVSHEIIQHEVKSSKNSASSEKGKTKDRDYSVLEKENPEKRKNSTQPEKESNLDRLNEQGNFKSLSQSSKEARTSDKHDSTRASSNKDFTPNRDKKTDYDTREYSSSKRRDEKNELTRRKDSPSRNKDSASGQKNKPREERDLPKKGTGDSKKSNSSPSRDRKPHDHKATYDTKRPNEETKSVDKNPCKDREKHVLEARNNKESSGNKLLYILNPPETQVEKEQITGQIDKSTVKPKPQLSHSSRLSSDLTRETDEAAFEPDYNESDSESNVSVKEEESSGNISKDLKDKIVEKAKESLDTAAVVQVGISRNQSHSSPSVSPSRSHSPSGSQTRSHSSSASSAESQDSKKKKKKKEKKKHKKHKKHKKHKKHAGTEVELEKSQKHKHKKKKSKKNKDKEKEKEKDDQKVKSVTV
UniProt Q8TEU7: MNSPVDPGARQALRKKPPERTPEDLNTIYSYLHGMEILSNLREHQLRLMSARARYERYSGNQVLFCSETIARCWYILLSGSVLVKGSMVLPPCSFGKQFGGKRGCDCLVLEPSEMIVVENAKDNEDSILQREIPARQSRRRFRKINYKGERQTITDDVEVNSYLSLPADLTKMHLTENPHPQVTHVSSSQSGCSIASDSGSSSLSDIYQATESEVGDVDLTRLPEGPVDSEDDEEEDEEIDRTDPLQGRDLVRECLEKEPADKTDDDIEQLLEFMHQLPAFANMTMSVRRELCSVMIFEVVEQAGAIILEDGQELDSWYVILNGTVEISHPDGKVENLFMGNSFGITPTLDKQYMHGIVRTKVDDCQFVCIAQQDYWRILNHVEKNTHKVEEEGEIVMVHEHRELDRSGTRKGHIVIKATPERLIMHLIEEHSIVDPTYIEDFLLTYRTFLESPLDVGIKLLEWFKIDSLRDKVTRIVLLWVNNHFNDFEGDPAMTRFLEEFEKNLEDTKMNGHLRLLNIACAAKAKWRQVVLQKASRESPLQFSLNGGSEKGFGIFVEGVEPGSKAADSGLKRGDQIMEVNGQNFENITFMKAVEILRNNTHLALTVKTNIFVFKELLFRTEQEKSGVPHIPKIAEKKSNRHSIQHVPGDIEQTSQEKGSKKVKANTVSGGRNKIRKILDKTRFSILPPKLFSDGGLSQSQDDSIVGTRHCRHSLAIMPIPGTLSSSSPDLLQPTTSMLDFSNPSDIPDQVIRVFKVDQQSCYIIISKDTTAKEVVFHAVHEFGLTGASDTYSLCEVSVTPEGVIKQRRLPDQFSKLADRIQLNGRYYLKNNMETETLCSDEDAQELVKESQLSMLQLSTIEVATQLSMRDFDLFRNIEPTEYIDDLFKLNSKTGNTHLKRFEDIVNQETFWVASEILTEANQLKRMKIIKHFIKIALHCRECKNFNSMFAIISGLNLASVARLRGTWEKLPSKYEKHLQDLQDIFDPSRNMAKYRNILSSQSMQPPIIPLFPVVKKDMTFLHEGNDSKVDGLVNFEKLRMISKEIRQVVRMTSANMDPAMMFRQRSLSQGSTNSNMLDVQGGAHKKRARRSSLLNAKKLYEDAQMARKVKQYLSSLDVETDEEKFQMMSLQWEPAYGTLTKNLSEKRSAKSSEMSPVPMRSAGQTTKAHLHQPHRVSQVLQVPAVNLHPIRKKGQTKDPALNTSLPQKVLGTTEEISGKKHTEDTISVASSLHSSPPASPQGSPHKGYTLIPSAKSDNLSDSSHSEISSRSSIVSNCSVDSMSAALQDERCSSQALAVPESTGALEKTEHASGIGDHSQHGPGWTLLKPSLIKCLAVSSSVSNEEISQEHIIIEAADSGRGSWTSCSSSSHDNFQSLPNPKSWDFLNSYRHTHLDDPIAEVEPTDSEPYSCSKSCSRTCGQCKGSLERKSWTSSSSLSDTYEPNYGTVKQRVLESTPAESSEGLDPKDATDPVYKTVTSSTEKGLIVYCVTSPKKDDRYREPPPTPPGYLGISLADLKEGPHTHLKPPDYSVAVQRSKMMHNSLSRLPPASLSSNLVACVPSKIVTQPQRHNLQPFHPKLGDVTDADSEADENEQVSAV
UniProt Q86WH2: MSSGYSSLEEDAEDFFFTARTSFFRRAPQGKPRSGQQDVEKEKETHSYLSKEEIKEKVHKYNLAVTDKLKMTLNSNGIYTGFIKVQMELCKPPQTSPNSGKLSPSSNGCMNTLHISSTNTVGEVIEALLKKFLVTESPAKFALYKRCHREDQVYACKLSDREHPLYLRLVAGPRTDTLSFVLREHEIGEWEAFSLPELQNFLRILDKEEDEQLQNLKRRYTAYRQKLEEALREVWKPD
UniProt O95716: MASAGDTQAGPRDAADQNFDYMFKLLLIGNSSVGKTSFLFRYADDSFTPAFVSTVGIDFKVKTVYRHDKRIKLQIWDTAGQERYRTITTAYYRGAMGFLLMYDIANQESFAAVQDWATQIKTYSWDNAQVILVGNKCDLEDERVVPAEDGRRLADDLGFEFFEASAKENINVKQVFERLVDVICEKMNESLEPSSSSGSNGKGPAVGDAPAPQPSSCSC
UniProt Q15291, whole entry, looked up: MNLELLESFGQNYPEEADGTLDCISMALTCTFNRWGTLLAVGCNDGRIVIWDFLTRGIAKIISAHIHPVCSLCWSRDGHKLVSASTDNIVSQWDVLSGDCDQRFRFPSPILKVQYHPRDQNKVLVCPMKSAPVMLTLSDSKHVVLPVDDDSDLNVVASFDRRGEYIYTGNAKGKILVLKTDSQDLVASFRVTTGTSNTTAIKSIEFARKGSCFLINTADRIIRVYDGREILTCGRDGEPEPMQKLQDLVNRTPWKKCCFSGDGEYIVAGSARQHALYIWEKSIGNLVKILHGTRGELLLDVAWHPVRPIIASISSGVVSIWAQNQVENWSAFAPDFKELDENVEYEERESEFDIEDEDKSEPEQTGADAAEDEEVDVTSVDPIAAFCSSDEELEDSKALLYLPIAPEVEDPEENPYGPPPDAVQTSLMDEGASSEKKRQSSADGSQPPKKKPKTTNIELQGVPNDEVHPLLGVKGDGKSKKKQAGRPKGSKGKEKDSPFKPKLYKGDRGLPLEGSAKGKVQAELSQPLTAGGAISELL
UniProt Q09028, whole entry, looked up: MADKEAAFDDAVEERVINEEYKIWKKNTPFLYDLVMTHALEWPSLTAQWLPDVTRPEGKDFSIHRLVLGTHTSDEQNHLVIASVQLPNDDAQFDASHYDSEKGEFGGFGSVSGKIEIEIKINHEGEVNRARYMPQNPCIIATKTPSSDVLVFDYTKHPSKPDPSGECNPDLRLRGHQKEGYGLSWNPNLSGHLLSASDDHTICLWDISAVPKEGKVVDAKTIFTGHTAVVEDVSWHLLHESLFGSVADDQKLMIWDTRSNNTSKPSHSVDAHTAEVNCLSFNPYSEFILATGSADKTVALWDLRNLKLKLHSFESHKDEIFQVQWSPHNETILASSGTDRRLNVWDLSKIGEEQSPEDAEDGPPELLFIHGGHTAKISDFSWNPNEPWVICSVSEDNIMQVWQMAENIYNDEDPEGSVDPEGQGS

compound: CNC(=O)c1ccc(Nc2ncc(C(F)(F)F)c(NCc3nccnc3N(C)S(C)(=O)=O)n2)cc1 [defactinib]; experiment: log2 fold change, soluble protein after heating vs DMSO (PISA); higher = thermal stabilisation; K562 cells, 10 uM, 30 min; active = over 0.2 and 3.5 SD of the protein, either way, in both replicates (recomputed)
In short: (§1)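 K562 cells at 2×10^6 cells/mL were exposed to 10 μM compound for 30 min, then aliquots were heated for 3 min across 48°C-58°C, pooled, and extracted in PBS containing 0.5% NP-40 at 4°C. The supernatant after 21,000xg for 90 min was taken as soluble protein and measured by TMTpro 16plex LC-MS/MS with channel sums equalised. Thermal stability is reported relative to control samples, with values from duplicates. Fold changes are given on a log2 scale.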

Row | Target | log2 fold change
1 | RBKS (UniProt Q9H477) | inactive: -0.012
2 | RALGPS2 (UniProt Q86X27) | inactive: 0.176
3 | RAB3IL1 (UniProt E9PK89) | inactive: -0.016
4 | RBBP9 (UniProt O75884) | inactive: 0.225
5 | RAB30 (UniProt Q15771) | inactive: 0.02
6 | RANBP10 (UniProt Q6VN20) | inactive: -0.073
7 | RBBP6 (UniProt Q7Z6E9) | inactive: -0.056
8 | RAB28 (UniProt P51157) | inactive: -0.023
9 | RALBP1 (UniProt Q15311) | inactive: 0.22
10 | RAPGEF6 isoform 4 (UniProt Q8TEU7) | inactive: -0.244
11 | RAP1B (UniProt F5GWU8) | inactive: -0.014
12 | RASSF1 (UniProt Q9NS23) | inactive: 0.075
13 | RASSF3 (UniProt Q86WH2) | inactive: 0.037
14 | RAB18 (UniProt H0Y6T8) | inactive: 0.139
15 | RAB3D (UniProt O95716) | inactive: 0.064
16 | RBBP5 isoform 2 (UniProt Q15291) | inactive: -0.044

compound: CNCc1ccc(-c2[nH]c3cc(F)cc4c3c2CCNC4=O)cc1 [rucaparib]; experiment: as above
In short: as §1

Row | Target | log2 fold change
17 | RBKS (UniProt Q9H477) | inactive: -0.286
18 | RALGPS2 (UniProt Q86X27) | inactive: -0.133
19 | RAB3IL1 (UniProt E9PK89) | inactive: -0.074
20 | RBL1 (UniProt P28749) | inactive: 0.024
21 | RANBP3 isoform 2 (UniProt Q9H6Z4) | inactive: -0.005
22 | RAB30 (UniProt Q15771) | inactive: -0.009
23 | RANBP10 (UniProt Q6VN20) | inactive: -0.022
24 | RANGRF (UniProt Q9HD47) | inactive: 0.044
25 | RBBP4 isoform 2 (UniProt Q09028) | inactive: -0.049
26 | RBM28 (UniProt Q9NW13) | inactive: 0.444
27 | RBBP6 (UniProt Q7Z6E9) | inactive: 0.067
28 | RAPGEF6 isoform 4 (UniProt Q8TEU7) | inactive: -0.122
29 | RBFA (UniProt Q8N0V3) | inactive: 0.03
30 | RASSF3 (UniProt Q86WH2) | inactive: -0.01
31 | RAB18 (UniProt H0Y6T8) | inactive: -0.311
32 | RAB3D (UniProt O95716) | inactive: -0.021
33 | RBBP5 isoform 2 (UniProt Q15291) | inactive: 0.102

compound: CNc1nc(-c2ccc3c(N)n[nH]c3c2)cc(N2C[C@@H](C(=O)NC3CCCCC3)CC[C@H]2C)n1; experiment: as above
In short: as §1

Row | Target | log2 fold change
34 | RALGPS2 (UniProt Q86X27) | inactive: 0.159
35 | RAB30 (UniProt Q15771) | inactive: 0.009
36 | RBBP4 isoform 2 (UniProt Q09028) | inactive: -0.036
37 | RAB28 (UniProt P51157) | inactive: -0.123
38 | RASA3 (UniProt Q14644) | inactive: 0.347
39 | RAD17 (UniProt O75943) | inactive: -0.079
40 | RAP1B (UniProt F5GWU8) | inactive: 0.174
41 | RAB3D (UniProt O95716) | inactive: -0.016

compound: COC(=O)N[C@@H](C)CNc1nccc(-c2cn(C(C)C)nc2-c2cc(Cl)cc(NS(C)(=O)=O)c2F)n1 [encorafenib]; experiment: as above
In short: as §1

Row | Target | log2 fold change
42 | RBKS (UniProt Q9H477) | inactive: 0.173
43 | RALGPS2 (UniProt Q86X27) | inactive: 0.425
44 | RAB3IL1 (UniProt E9PK89) | inactive: 0.084
45 | RBL1 (UniProt P28749) | inactive: -0.057
46 | RANBP3 isoform 2 (UniProt Q9H6Z4) | inactive: -0.113
47 | RAB30 (UniProt Q15771) | inactive: 0.014
48 | RANBP10 (UniProt Q6VN20) | inactive: 0.004
49 | RANGRF (UniProt Q9HD47) | inactive: -0.063
50 | RBBP4 isoform 2 (UniProt Q09028) | inactive: -0.012
51 | RBM28 (UniProt Q9NW13) | inactive: 0.121
52 | RBBP6 (UniProt Q7Z6E9) | inactive: 0.055
53 | RAPGEF6 isoform 4 (UniProt Q8TEU7) | inactive: 0.047
54 | RBFA (UniProt Q8N0V3) | inactive: 0.027
55 | RASSF3 (UniProt Q86WH2) | inactive: -0.065
56 | RAB18 (UniProt H0Y6T8) | inactive: 0.027
57 | RAB3D (UniProt O95716) | inactive: -0.043
58 | RBBP5 isoform 2 (UniProt Q15291) | inactive: 0

compound: COC(=O)[C@H](CCSC)NC(=O)C1=C(C=C(C=C1)NC[C@H](CS)N)C2=CC=CC=C2; experiment: as above
In short: as §1

Row | Target | log2 fold change
59 | RBKS (UniProt Q9H477) | inactive: 0.061
60 | RALGPS2 (UniProt Q86X27) | inactive: -0.101
61 | RAB3IL1 (UniProt E9PK89) | inactive: 0.045
62 | RBBP9 (UniProt O75884) | inactive: 0.078
63 | RAB30 (UniProt Q15771) | inactive: -0.041
64 | RANBP10 (UniProt Q6VN20) | inactive: -0.073
65 | RBBP6 (UniProt Q7Z6E9) | inactive: 0.04
66 | RAB28 (UniProt P51157) | inactive: -0.134
67 | RALBP1 (UniProt Q15311) | inactive: -0.001
68 | RAPGEF6 isoform 4 (UniProt Q8TEU7) | inactive: -0.007
69 | RAP1B (UniProt F5GWU8) | inactive: 0.012
70 | RASSF1 (UniProt Q9NS23) | inactive: 0.047
71 | RASSF3 (UniProt Q86WH2) | inactive: -0.149
72 | RAB18 (UniProt H0Y6T8) | inactive: -0.055
73 | RAB3D (UniProt O95716) | inactive: -0.094
74 | RBBP5 isoform 2 (UniProt Q15291) | inactive: 0.196
